Test [1] deals with C-terminally FLAG tagged CBFB (human) (UniProt Q13951). Nature of the test: affinity purification with mass spectrometry; FLAG pulldown from stable CBFB KO MCF10A cells (about 100 million); NET buffer (50 mM Tris pH 7.5, 250 mM NaCl, 5 mM EDTA, 0.1% NP40, 10 µg/ml RNase A); anti-FLAG-M2 affinity gel overnight at 4 °C; eluted with 3x FLAG peptide; enriched silver-stained bands (vs. empty vector) cut out for mass spectrometry.

Test [2] has as its target N-terminally FLAG tagged CBFB (human) (UniProt Q13951). The test is described as above.

Results are given in words; binding and its absence hold for the method and conditions named. In cells and extracts the contact can be indirect. These calls come from enrichment with a bait or labelling near it, and not all partners need be listed.

One substance from paper PMC6502810 can be followed below.

Take hnRNPK (from UniProt P61978 1-463): the binding result in test [1] and in test [2] was “binds” throughout.
